Laboratory results taken from paper PMC6591397, “Functional Roles of Metabolic Intermediates in Regulating the Human Mitochondrial NAD(P)^+-Dependent Malic Enzyme” (Scientific Reports, 2019).

Tested on: human m-NAD(P)-ME WT and the exosite mutants
Assay: Size distribution analysis by analytical ultracentrifugation of WT and exosite mutants, protein only, with NAD+ or with ATP
Assay type: binding
Details: for Kd,12(NAD)/Kd,12 / Kd,24(NAD)/Kd,24: with 0.4 mM NAD+ vs protein only; for Kd,12(ATP)/Kd,12 / Kd,24(ATP)/Kd,24: with 0.5 mM ATP vs protein only
Protocol: Size distribution of the monomer-dimer-tetramer equilibrium of the enzyme was monitored using a Beckman Optima XL-A analytical ultracentrifuge instrument. A protein sample (380 µl) and reference buffer (400 µl) were loaded into a well-assembled cell with a double-sector centerpiece. Experiments were performed with an An-50Ti rotor at 42,000 rpm and 20 °C for 3 to 4 hours. The scans for sedimentation velocity data were monitored by the UV absorbance at 280 nm with a 480 s interval time and a 0.002 cm step size in continuous distribution mode. Using the SEDFIT 9.4c software[31]–[34], the size distribution of the enzyme was analyzed with a resolution corresponding to N = 200 to cover the range of sedimentation coefficient (S) values from approximately 0.1 to 20, a confidence level of p = 0.95, and a best-fit average anhydrous frictional ratio (f/f0). The dissociation constants of monomer-dimer-tetramer self-association model were globally analyzed by using the SEDPHAT software.
All sedimentation velocity data were globally fitted by a monomer-dimer-tetramer equilibrium model by the software program of SEDPHAT[34]. The parameters protein partial specific volume, solvent density and viscosity were calculated with the […] software program.
Figure 4 Continuous sedimentation coefficient distribution of human m-NAD(P)-ME WT and the exosite mutants. The enzyme concentrations were fixed at 1.6, 4.7, and 14.2 μM in PBS. […] (a) ME2_WT; (b) ME2_H154V; (c) ME2_K156A; (d) ME2_G192A; (e) ME2_R194N; (f) ME2_R197E; (g) ME2_R197D.
Figure 5 Continuous sedimentation coefficient distribution of human m-NAD(P)-ME WT and the exosite mutants. The enzyme concentrations were fixed at 1.6, 4.7, and 14.2 μM in PBS. […] (a) ME2_N482G; (b) ME2_N482A; (c) ME2_R542V; (d) ME2_Y552F; (e) ME2_R556Q; (f) ME2_R556V.

Substance	Kd,12(NAD)/Kd,12	Kd,12(ATP)/Kd,12	Kd,24(ATP)/Kd,24	Kd,24(NAD)/Kd,24
G192A: exosite mutant of human m-NAD(P)-ME	0.7	2.3	1.3	–
H154V: exosite mutant of human m-NAD(P)-ME	2.3	15.3	8.7	0.3
K156A: exosite mutant of human m-NAD(P)-ME	11.3	2.7	2.5	0.3
N482A: exosite mutant of human m-NAD(P)-ME	2.0	–	–	–
N482G: exosite mutant of human m-NAD(P)-ME	7.6	2.0	–	0.2
R194N: exosite mutant of human m-NAD(P)-ME	0.5	0.3	6.3	0.2
R197D: exosite mutant of human m-NAD(P)-ME	0.1	0.9	–	–
R197E: exosite mutant of human m-NAD(P)-ME	3.3	3.3	–	–
R542V: exosite mutant of human m-NAD(P)-ME	187.0	2.0	22.4	–
R556Q: exosite mutant of human m-NAD(P)-ME	18.0	40.0	–	–
R556V: exosite mutant of human m-NAD(P)-ME	4.6	15.6	–	–
WT: wild-type human mitochondrial NAD(P)+-dependent malic enzyme (ME2), recombinant from E. coli	2.8	2.7	7.8	0.14
